{"source": "PubChem BioAssay AID1508597 (Cure First, 2020)", "aim": "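Survival screen with siRNA in ovarian cancer cells derived from patients, with or without rucaparib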 (primary screen)", "cell system": "human ovarian carcinoma lines grown from tumours: OCI-P5x (papillary serous) and OCI-C5x (clear cell)", "knock-down reagent": "siRNA pool against human genes, 1.25 pmol siRNA per well", "timing": "72 h or 96 h, depending on the cell culture", "treatment": "rucaparib 20 µM (about IC30) or vehicle, present until read-out", "detection": "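Luminescent ATP-based viability assay read 72 or 96 h after transfection, depending on culture, given as normalised percent viability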", "reading the numbers": "viability, normalised: higher = more viable cells remaining", "rule for the call": "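Active when normalised viability falls below 80 percent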", "calls": "active = viability under 80%; inactive = viability 80% or more", "note": "Shown is an unselected part of about 2,100 reagents tested. 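Calls flag viability under 80% in either arm, not effects specific to rucaparib; the reference for percent is not stated.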 Some reagents were tested in more than one well and are listed for each. Reagent sequences are not shown. The record does not give: the 100% reference."}
{"gene":"CSNK2A1 (GeneID 1457)","rucaparib or vehicle":"Rucaparib","cell line":"OCI-C5x (clear cell)","technical replicate":"1","viability, normalised (%)":59.9,"Call":"active"}
{"gene":"CSNK2A1 (GeneID 1457)","rucaparib or vehicle":"Rucaparib","cell line":"OCI-C5x (clear cell)","technical replicate":"1","viability, normalised (%)":61.5,"Call":"active"}
{"gene":"CSNK2A1 (GeneID 1457)","rucaparib or vehicle":"Rucaparib","cell line":"OCI-C5x (clear cell)","technical replicate":"2","viability, normalised (%)":50.6,"Call":"active"}
{"gene":"CSNK2A1 (GeneID 1457)","rucaparib or vehicle":"Rucaparib","cell line":"OCI-C5x (clear cell)","technical replicate":"2","viability, normalised (%)":39.8,"Call":"active"}
{"gene":"CSNK2A1 (GeneID 1457)","rucaparib or vehicle":"Rucaparib","cell line":"OCI-C5x (clear cell)","technical replicate":"3","viability, normalised (%)":39,"Call":"active"}
{"gene":"CSNK2A1 (GeneID 1457)","rucaparib or vehicle":"Rucaparib","cell line":"OCI-C5x (clear cell)","technical replicate":"3","viability, normalised (%)":61,"Call":"active"}
{"gene":"CSNK2A1 (GeneID 1457)","rucaparib or vehicle":"Rucaparib","cell line":"OCI-P5x (serous)","technical replicate":"1","viability, normalised (%)":146,"Call":"inactive"}
{"gene":"CSNK2A1 (GeneID 1457)","rucaparib or vehicle":"Rucaparib","cell line":"OCI-P5x (serous)","technical replicate":"1","viability, normalised (%)":59.2,"Call":"active"}
{"gene":"CSNK2A1 (GeneID 1457)","rucaparib or vehicle":"Rucaparib","cell line":"OCI-P5x (serous)","technical replicate":"2","viability, normalised (%)":115,"Call":"inactive"}
{"gene":"CSNK2A1 (GeneID 1457)","rucaparib or vehicle":"Rucaparib","cell line":"OCI-P5x (serous)","technical replicate":"2","viability, normalised (%)":70.5,"Call":"active"}
{"gene":"CSNK2A1 (GeneID 1457)","rucaparib or vehicle":"Rucaparib","cell line":"OCI-P5x (serous)","technical replicate":"3","viability, normalised (%)":58.2,"Call":"active"}
{"gene":"CSNK2A1 (GeneID 1457)","rucaparib or vehicle":"Rucaparib","cell line":"OCI-P5x (serous)","technical replicate":"3","viability, normalised (%)":124,"Call":"inactive"}
{"gene":"CSNK2A1 (GeneID 1457)","rucaparib or vehicle":"Vehicle","cell line":"OCI-C5x (clear cell)","technical replicate":"1","viability, normalised (%)":25.6,"Call":"active"}
{"gene":"CSNK2A1 (GeneID 1457)","rucaparib or vehicle":"Vehicle","cell line":"OCI-C5x (clear cell)","technical replicate":"1","viability, normalised (%)":62.7,"Call":"active"}
{"gene":"CSNK2A1 (GeneID 1457)","rucaparib or vehicle":"Vehicle","cell line":"OCI-C5x (clear cell)","technical replicate":"2","viability, normalised (%)":40.5,"Call":"active"}
{"gene":"CSNK2A1 (GeneID 1457)","rucaparib or vehicle":"Vehicle","cell line":"OCI-C5x (clear cell)","technical replicate":"2","viability, normalised (%)":60,"Call":"active"}
{"gene":"CSNK2A1 (GeneID 1457)","rucaparib or vehicle":"Vehicle","cell line":"OCI-C5x (clear cell)","technical replicate":"3","viability, normalised (%)":37.9,"Call":"active"}
{"gene":"CSNK2A1 (GeneID 1457)","rucaparib or vehicle":"Vehicle","cell line":"OCI-C5x (clear cell)","technical replicate":"3","viability, normalised (%)":39.9,"Call":"active"}
{"gene":"CSNK2A1 (GeneID 1457)","rucaparib or vehicle":"Vehicle","cell line":"OCI-P5x (serous)","technical replicate":"1","viability, normalised (%)":61,"Call":"active"}
{"gene":"CSNK2A1 (GeneID 1457)","rucaparib or vehicle":"Vehicle","cell line":"OCI-P5x (serous)","technical replicate":"1","viability, normalised (%)":107,"Call":"inactive"}
{"gene":"CSNK2A1 (GeneID 1457)","rucaparib or vehicle":"Vehicle","cell line":"OCI-P5x (serous)","technical replicate":"2","viability, normalised (%)":73.9,"Call":"active"}
{"gene":"CSNK2A1 (GeneID 1457)","rucaparib or vehicle":"Vehicle","cell line":"OCI-P5x (serous)","technical replicate":"2","viability, normalised (%)":119,"Call":"inactive"}
{"gene":"CSNK2A1 (GeneID 1457)","rucaparib or vehicle":"Vehicle","cell line":"OCI-P5x (serous)","technical replicate":"3","viability, normalised (%)":110,"Call":"inactive"}
{"gene":"CSNK2A1 (GeneID 1457)","rucaparib or vehicle":"Vehicle","cell line":"OCI-P5x (serous)","technical replicate":"3","viability, normalised (%)":83.3,"Call":"inactive"}

The list goes on (2 carried over from the part before).
{"gene":"CSNK2A1 (GeneID 1457)","rucaparib or vehicle":"Vehicle","cell line":"OCI-P5x (serous)","technical replicate":"3","viability, normalised (%)":110,"Call":"inactive"}
{"gene":"CSNK2A1 (GeneID 1457)","rucaparib or vehicle":"Vehicle","cell line":"OCI-P5x (serous)","technical replicate":"3","viability, normalised (%)":83.3,"Call":"inactive"}
{"gene":"CCT2 (GeneID 10576)","rucaparib or vehicle":"Rucaparib","cell line":"OCI-C5x (clear cell)","technical replicate":"1","viability, normalised (%)":45.4,"Call":"active"}
{"gene":"CCT2 (GeneID 10576)","rucaparib or vehicle":"Rucaparib","cell line":"OCI-C5x (clear cell)","technical replicate":"2","viability, normalised (%)":49.7,"Call":"active"}
{"gene":"CCT2 (GeneID 10576)","rucaparib or vehicle":"Rucaparib","cell line":"OCI-C5x (clear cell)","technical replicate":"3","viability, normalised (%)":39.4,"Call":"active"}
{"gene":"CCT2 (GeneID 10576)","rucaparib or vehicle":"Rucaparib","cell line":"OCI-P5x (serous)","technical replicate":"1","viability, normalised (%)":60.7,"Call":"active"}
{"gene":"CCT2 (GeneID 10576)","rucaparib or vehicle":"Rucaparib","cell line":"OCI-P5x (serous)","technical replicate":"2","viability, normalised (%)":69.1,"Call":"active"}
{"gene":"CCT2 (GeneID 10576)","rucaparib or vehicle":"Rucaparib","cell line":"OCI-P5x (serous)","technical replicate":"3","viability, normalised (%)":63.7,"Call":"active"}
{"gene":"CCT2 (GeneID 10576)","rucaparib or vehicle":"Vehicle","cell line":"OCI-C5x (clear cell)","technical replicate":"1","viability, normalised (%)":61.3,"Call":"active"}
{"gene":"CCT2 (GeneID 10576)","rucaparib or vehicle":"Vehicle","cell line":"OCI-C5x (clear cell)","technical replicate":"2","viability, normalised (%)":40.6,"Call":"active"}
{"gene":"CCT2 (GeneID 10576)","rucaparib or vehicle":"Vehicle","cell line":"OCI-C5x (clear cell)","technical replicate":"3","viability, normalised (%)":46.6,"Call":"active"}
{"gene":"CCT2 (GeneID 10576)","rucaparib or vehicle":"Vehicle","cell line":"OCI-P5x (serous)","technical replicate":"1","viability, normalised (%)":46.3,"Call":"active"}
{"gene":"CCT2 (GeneID 10576)","rucaparib or vehicle":"Vehicle","cell line":"OCI-P5x (serous)","technical replicate":"2","viability, normalised (%)":63.9,"Call":"active"}
{"gene":"CCT2 (GeneID 10576)","rucaparib or vehicle":"Vehicle","cell line":"OCI-P5x (serous)","technical replicate":"3","viability, normalised (%)":65.5,"Call":"active"}
{"gene":"PDE5A (GeneID 8654)","rucaparib or vehicle":"Rucaparib","cell line":"OCI-C5x (clear cell)","technical replicate":"1","viability, normalised (%)":58.7,"Call":"active"}
{"gene":"PDE5A (GeneID 8654)","rucaparib or vehicle":"Rucaparib","cell line":"OCI-C5x (clear cell)","technical replicate":"2","viability, normalised (%)":41.4,"Call":"active"}
{"gene":"PDE5A (GeneID 8654)","rucaparib or vehicle":"Rucaparib","cell line":"OCI-C5x (clear cell)","technical replicate":"3","viability, normalised (%)":44.1,"Call":"active"}
{"gene":"PDE5A (GeneID 8654)","rucaparib or vehicle":"Rucaparib","cell line":"OCI-P5x (serous)","technical replicate":"1","viability, normalised (%)":51.9,"Call":"active"}
{"gene":"PDE5A (GeneID 8654)","rucaparib or vehicle":"Rucaparib","cell line":"OCI-P5x (serous)","technical replicate":"2","viability, normalised (%)":56.8,"Call":"active"}
{"gene":"PDE5A (GeneID 8654)","rucaparib or vehicle":"Rucaparib","cell line":"OCI-P5x (serous)","technical replicate":"3","viability, normalised (%)":56.5,"Call":"active"}
{"gene":"PDE5A (GeneID 8654)","rucaparib or vehicle":"Vehicle","cell line":"OCI-C5x (clear cell)","technical replicate":"1","viability, normalised (%)":47,"Call":"active"}
{"gene":"PDE5A (GeneID 8654)","rucaparib or vehicle":"Vehicle","cell line":"OCI-C5x (clear cell)","technical replicate":"2","viability, normalised (%)":48.4,"Call":"active"}
{"gene":"PDE5A (GeneID 8654)","rucaparib or vehicle":"Vehicle","cell line":"OCI-C5x (clear cell)","technical replicate":"3","viability, normalised (%)":46.1,"Call":"active"}
{"gene":"PDE5A (GeneID 8654)","rucaparib or vehicle":"Vehicle","cell line":"OCI-P5x (serous)","technical replicate":"1","viability, normalised (%)":75.8,"Call":"active"}
{"gene":"PDE5A (GeneID 8654)","rucaparib or vehicle":"Vehicle","cell line":"OCI-P5x (serous)","technical replicate":"2","viability, normalised (%)":59.2,"Call":"active"}
{"gene":"PDE5A (GeneID 8654)","rucaparib or vehicle":"Vehicle","cell line":"OCI-P5x (serous)","technical replicate":"3","viability, normalised (%)":79.7,"Call":"active"}
